# Source: PubChem BioAssay AID330 (DTP/NCI, 2004)
# The list shows only some results of the screen, not a fair sample: it gathers tests that were run many times, whatever their T/C, doses with no T/C, and many T/C values between a quarter and a half above the control. Further doses and runs are listed elsewhere. T/C: endpoint of the treated group in % of that of the vehicle group. Some doses have a count of surviving animals in place of a T/C: the source holds a T/C of zero for them, seemingly a mark for toxic or unscored doses. Some survivor counts are full or nearly so, which does not show that the dose was tolerated: the source hardly ever lists a survival T/C far under the control, and the zero likely stands for such cases as well. Counts of survivors are from the toxicity check (mostly the fifth day) where no day follows; animals may have died later. Schedules are NCI's codes, taken here to give the interval after Q, in days (D) or hours (H), and the number of doses after X. Some doses were run more than once; the values are given in rising order. For survival time, the PubChem record calls one and a half times the control and up active, and a quarter to a half above the control has no call in these data; cut-offs in other NCI protocols can differ. Signs of the kind (2×) say how often a value occurs here. Some T/C values are followed by the survivors on the day toxicity was checked, most often the fifth; without a count, all were alive then.
# System: P388 leukemia ip, CD2F1 mice, survival T/C
# Assay: NCI In Vivo Anticancer Drug Screen. Data for tumor model P388 Leukemia (intraperitoneal) in CD2F1 (CDF1) mice
# Details: T/C endpoint: median survival time, higher T/C = longer survival
# [1] = dose: 50.0 mg/kg/injection, schedule: Q01DX005 (ip), vehicle: saline + Tween-80 + alcohol
# [2] = dose: 100.0 mg/kg/injection, schedule: Q01DX005 (ip), vehicle: saline + Tween-80 + alcohol
# [3] = dose: 200.0 mg/kg/injection, schedule: Q01DX005 (ip), vehicle: saline + Tween-80 + alcohol
# [4] = dose: 400.0 mg/kg/injection, schedule: Q01DX001 (ip), vehicle: saline with Tween-80
# [5] = dose: 100.0 mg/kg/injection, schedule: Q01DX005 (ip), vehicle: saline with Tween-80
# [6] = dose: 200.0 mg/kg/injection, schedule: Q01DX005 (ip), vehicle: saline with Tween-80
# [7] = dose: 240.0 mg/kg/injection, schedule: Q01DX005 (ip), vehicle: saline with Tween-80
# [8] = dose: 200.0 mg/kg/injection, schedule: Q01DX005 (ip), vehicle: Klucel (hydroxypropylcellulose) (HPC)
# [9] = dose: 100.0 mg/kg/injection, schedule: Q01DX009 (ip), vehicle: Klucel (hydroxypropylcellulose) (HPC)
# [10] = dose: 200.0 mg/kg/injection, schedule: Q04DX003 (ip), vehicle: saline with Tween-80
# [11] = dose: 50.0 mg/kg/injection, schedule: Q01DX005 (ip), vehicle: saline with Tween-80
# [12] = dose: 25.0 mg/kg/injection, schedule: Q01DX005 (ip), vehicle: saline with Tween-80
# [13] = dose: 200.0 mg/kg/injection, schedule: Q01DX009 (ip), vehicle: Klucel (hydroxypropylcellulose) (HPC)
structure (smiles),measurement,setting,value
N#CC1OC1c1ccccn1 (stereo not drawn),survivor count,"dose: 25.0 mg/kg/injection, schedule: Q01DX005 (ip), vehicle: saline + Tween-80 + alcohol",0 of 6
same,survivor count,[1],0 of 6
same,survivor count,[2],0 of 6
same,survivor count,[3],0 of 6
COc1ccc(/C(=C/c2c(C(=O)O)oc3ccccc23)c2ccccc2)cc1,survivor count,[4],1 of 6
Nc1nc(=S)c2ncn(C3OC(CO)CC3O)c2[nH]1 (stereo not drawn),T/C,"dose: 37.5 mg/kg/injection, schedule: Q04DX003 (ip), vehicle: saline",133 % of control
same,T/C,"dose: 40.0 mg/kg/injection, schedule: Q04DX003 (ip), vehicle: saline",141 % of control
same,T/C,"dose: 60.0 mg/kg/injection, schedule: Q04DX003 (ip), vehicle: saline",133 % of control
same,T/C,"dose: 75.0 mg/kg/injection, schedule: Q04DX003 (ip), vehicle: saline",129 % of control
CNC(=O)OCC1=C(Sc2ccccc2)C(=O)C(OC)=C(OC)C1=O,survivor count,[5],0 of 6
same,survivor count,[6],0 of 6
O=C1OS(=O)(=O)c2cc3c(cc21)C1C(C2C3C3(Cl)C(Cl)=C(Cl)C2(Cl)C3(Cl)Cl)C2(Cl)C(Cl)=C(Cl)C1(Cl)C2(Cl)Cl (stereo not drawn),survivor count,"dose: 200.0 mg/kg/injection, schedule: Q01DX009 (ip), vehicle: saline",3 of 6
CN1CCN(CC2CCOc3cc(Cl)ccc3C2=O)CC1 (stereo not drawn),survivor count,"dose: 400.0 mg/kg/injection, schedule: Q04DX003 (ip), vehicle: saline",2 of 6
COc1ccc(-c2cc3cc(OC)c(OC)cc3cn2)cc1OC,survivor count,"dose: 100.0 mg/kg/injection, schedule: Q01DX009 (ip), vehicle: saline",6 of 6
CN(C)Cc1[nH]c2ccccc2c1Sc1ccccc1,survivor count,[7],3 of 6
O/N=C(/CC(c1ccccc1)N1CCOCC1)c1ccccc1 (stereo not drawn),survivor count,[8],6 of 6
CCCCCCCCCCCC(O)CCCC(O)CC(O)CC(O)CC1CC=CC(=O)O1 (stereo not drawn),survivor count,[9],6 of 6
CN(C)c1ccc(/C=N/NC(N)=S)nc1,T/C,"dose: 66.0 mg/kg/injection, schedule: Q04DX003 (ip), vehicle: saline with Tween-80",131 % of control
same,T/C,"dose: 100.0 mg/kg/injection, schedule: Q04DX003 (ip), vehicle: saline with Tween-80",140 and 145 % of control
same,survivor count,"dose: 150.0 mg/kg/injection, schedule: Q04DX003 (ip), vehicle: saline with Tween-80",2 of 6
same,survivor count,[10],5 of 6
O=[N+]([O-])c1ccc(F)c(Cl)c1,survivor count,"dose: 400.0 mg/kg/injection, schedule: Q04DX003 (ip), vehicle: other",1 of 6
CN1C=C(c2ccccc2)C=C(c2ccccc2)C1S(=O)(=O)O (stereo not drawn),survivor count,[1],0 of 4 and 0 of 6
same,survivor count,[2],0 of 6
same,survivor count,[3],0 of 6
NC(=O)N/N=C1\CCn2cccc21,survivor count,[7],6 of 6
CCN(CC)CCNc1ccc(COC(=O)OC)c2oc3ccccc3c(=O)c12,survivor count,[11],3 of 6
NNC(=O)c1ccc(N)cc1,survivor count,[10],4 of 6
CCCCN=NNCCCC,T/C,[12],129 % of control
same,survivor count,[11],5 of 5
same,survivor count,[5],1 of 5 and 2 of 6
same,survivor count,[6],0 of 6
CC(=O)/C(=C\c1cccc(Cl)c1)C(=O)CCN(C)C,T/C,"dose: 120.0 mg/kg/injection, schedule: Q01DX005 (ip), vehicle: saline with Tween-80",125 % of control
same,T/C,[7],132 % of control [5 of 6 alive]
same,survivor count,[7],2 of 6
same,survivor count,"dose: 480.0 mg/kg/injection, schedule: Q01DX005 (ip), vehicle: saline with Tween-80",0 of 6
CC1(CO)CCCC1NCCNC1CCCC1(C)CO (stereo not drawn),survivor count,[7],0 of 6
CC(=O)/C(=C\c1ccc(Cl)c(Cl)c1)C(=O)C(C)CN(C)C (stereo not drawn),T/C,[12],127 % of control
same,T/C,[5],130 % of control [4 of 6 alive]
same,survivor count,[5],0 of 6
same,survivor count,[6],0 of 6
CCN(CC)CCN(C(=O)C1c2ccccc2Oc2ccccc21)c1ccccc1,survivor count,"dose: 100.0 mg/kg/injection, schedule: Q01DX005 (ip), vehicle: Klucel (hydroxypropylcellulose) (HPC)",0 of 5
same,survivor count,[8],0 of 5
CCN(CCNc1ccc(C)c2sc3cc(Cl)ccc3c(=O)c12)CC(C)(C)O,survivor count,[5],5 of 5
CC(C)(C)SC(=O)CC1(O)CCCCC1,survivor count,"dose: 100.0 mg/kg/injection, schedule: Q04DX002 (ip), vehicle: Klucel (hydroxypropylcellulose) (HPC)",0 of 6
same,survivor count,"dose: 200.0 mg/kg/injection, schedule: Q04DX002 (ip), vehicle: Klucel (hydroxypropylcellulose) (HPC)",4 of 6
same,survivor count,"dose: 400.0 mg/kg/injection, schedule: Q04DX002 (ip), vehicle: Klucel (hydroxypropylcellulose) (HPC)",0 of 6
ClC1=NOC(c2ccccc2)C1 (stereo not drawn),survivor count,"dose: 400.0 mg/kg/injection, schedule: Q01DX005 (ip), vehicle: distilled water + Tween-80",0 of 6
CC(C)(F)c1nc2cc3ccccc3cc2[nH]c1=O,survivor count,[4],6 of 6
Cc1[nH]c(=O)[nH]c(=O)c1/C=C/C(=O)NC(CO)CSCc1ccccc1 (stereo not drawn),survivor count,"dose: 50.0 mg/kg/injection, schedule: Q01DX009 (ip), vehicle: other",5 of 6
COc1cccc2c1C(=O)c1c(O)c3c(c(O)c1C2=O)C[C@@](O)(C(=O)CSC(=O)c1ccccc1)C[C@@H]3OC1CC(N)C(O)C(C)O1 (stereo partly drawn),T/C,"dose: 1.56 mg/kg/injection, schedule: Q01DX009 (ip), vehicle: water",128 and 131 % of control
same,T/C,"dose: 3.13 mg/kg/injection, schedule: Q01DX009 (ip), vehicle: water",138 and 144 % of control
same,T/C,"dose: 6.25 mg/kg/injection, schedule: Q01DX001 (ip), vehicle: water",126 % of control
same,T/C,"dose: 6.25 mg/kg/injection, schedule: Q01DX009 (ip), vehicle: water",131 and 137 % of control
same,T/C,"dose: 12.5 mg/kg/injection, schedule: Q01DX001 (ip), vehicle: water",126 % of control
same,T/C,"dose: 12.5 mg/kg/injection, schedule: Q01DX009 (ip), vehicle: water",137 % of control (2×)
same,survivor count,"dose: 25.0 mg/kg/injection, schedule: Q01DX009 (ip), vehicle: water",5 of 6
same,survivor count,"dose: 100.0 mg/kg/injection, schedule: Q01DX001 (ip), vehicle: water",0 of 6
same,survivor count,"dose: 200.0 mg/kg/injection, schedule: Q01DX001 (ip), vehicle: water",0 of 6
CCOC(=O)C(Cc1ccc(N(CCCl)CCCl)cc1)NC(=O)C(N)CCC(=O)O (stereo not drawn),T/C,"dose: 5.0 mg/kg/injection, schedule: Q04DX003 (ip), vehicle: water",125 % of control
same,T/C,"dose: 25.0 mg/kg/injection, schedule: Q01DX009 (ip), vehicle: Klucel (hydroxypropylcellulose) (HPC)",128 % of control
same,survivor count,"dose: 50.0 mg/kg/injection, schedule: Q01DX009 (ip), vehicle: Klucel (hydroxypropylcellulose) (HPC)",5 of 6
same,survivor count,"dose: 80.0 mg/kg/injection, schedule: Q04DX003 (ip), vehicle: water",2 of 6
same,survivor count,[9],3 of 6
same,survivor count,"dose: 160.0 mg/kg/injection, schedule: Q04DX003 (ip), vehicle: water",0 of 6
same,survivor count,[13],0 of 6
c1cc(OCC2CO2)ccc1OCC1CO1 (stereo not drawn),survivor count,"dose: 200.0 mg/kg/injection, schedule: Q01DX009 (ip), vehicle: saline with Tween-80",4 of 6
same,survivor count,"dose: 400.0 mg/kg/injection, schedule: Q01DX009 (ip), vehicle: saline with Tween-80",1 of 6
same,T/C,"dose: 400.0 mg/kg/injection, schedule: Q04DX003 (ip), vehicle: saline sonified",136 % of control
same,T/C,"dose: 400.0 mg/kg/injection, schedule: Q04DX003 (ip), vehicle: saline with Tween-80",127 % of control
CC(Cl)CN(CC(C)Cl)c1ccc(-c2ccccc2)cc1 (stereo not drawn),survivor count,[9],6 of 6
same,T/C,[13],139 [5 of 6 alive] and 147 % of control
CCOC(=O)C[N+](C)(C)C(C#N)C(C)c1ccccc1 (stereo not drawn),survivor count,"dose: 240.0 mg/kg/injection, schedule: Q01DX005 (ip), vehicle: saline",0 of 6
